Data taken from paper PMC3329438.
No constants are given. Whether binding was seen depends on the method and setting. Binding seen in cells or lysates may run through a third protein. Some results given as binding are weak or reduced against the parent protein; the word gives no strength.

Amino acid sequences for entries named in this document (tags omitted). Residues count along the entry.
UniProt Q96BI3: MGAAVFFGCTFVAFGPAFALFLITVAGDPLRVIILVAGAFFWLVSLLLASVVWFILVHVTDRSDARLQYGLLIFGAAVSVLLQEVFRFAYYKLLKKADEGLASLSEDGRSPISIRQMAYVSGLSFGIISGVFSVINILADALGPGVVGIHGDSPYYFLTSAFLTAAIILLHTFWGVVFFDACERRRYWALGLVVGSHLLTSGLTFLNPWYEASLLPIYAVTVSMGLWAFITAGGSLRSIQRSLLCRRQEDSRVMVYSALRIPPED
UniProt Q92542, residues 34-709: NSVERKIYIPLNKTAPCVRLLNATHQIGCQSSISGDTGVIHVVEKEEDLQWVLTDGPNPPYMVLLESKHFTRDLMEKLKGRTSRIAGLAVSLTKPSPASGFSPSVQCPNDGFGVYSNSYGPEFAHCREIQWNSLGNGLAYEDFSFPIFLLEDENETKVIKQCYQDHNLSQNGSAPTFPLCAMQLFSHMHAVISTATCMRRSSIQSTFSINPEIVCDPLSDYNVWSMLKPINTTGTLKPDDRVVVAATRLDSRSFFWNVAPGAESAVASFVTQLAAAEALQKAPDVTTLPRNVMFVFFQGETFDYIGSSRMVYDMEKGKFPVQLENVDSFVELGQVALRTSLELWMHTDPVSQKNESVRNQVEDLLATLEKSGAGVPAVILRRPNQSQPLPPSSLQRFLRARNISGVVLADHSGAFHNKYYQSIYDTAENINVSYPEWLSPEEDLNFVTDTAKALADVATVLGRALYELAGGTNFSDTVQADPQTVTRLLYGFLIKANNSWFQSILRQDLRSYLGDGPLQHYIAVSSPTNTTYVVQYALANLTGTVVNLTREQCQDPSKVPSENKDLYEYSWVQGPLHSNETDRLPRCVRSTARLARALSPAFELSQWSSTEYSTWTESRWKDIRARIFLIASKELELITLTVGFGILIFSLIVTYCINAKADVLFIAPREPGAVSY

Assays:
[1] = biological target: human anterior pharynx-defective protein 1 aL with HA tag (hAPH1aL-HA) (human) (UniProt Q96BI3); assay: co-IP; 100 µg microsomal protein extract of γ-MEF clones in 1% CHAPSO-HEPES buffer, anti-Flag M2 (Flag-PEN2) or anti-HA (APH1aL-HA) affinity beads overnight at 4°C, washed in 0.2% CHAPSO-HEPES; immunoblot for NCT, PS1-NTF, PEN2
[2] = biological target: human anterior pharynx-defective protein 1 aL with HA tag (hAPH1aL-HA) (human) (UniProt Q96BI3); assay: co-IP; three sequential affinity purifications from CHAPSO-solubilised membranes: anti-Flag M2 (Flag peptide elution), anti-V5 (V5 peptide elution), anti-HA (HA peptide elution), in 0.1% digitonin-TBS at 4°C; purified complexes analysed by SDS-PAGE and immunoblot for NCT, PS1-NTF, PS1-CTF, HA, Flag

human nicastrin with V5 tag (hNCT-V5) (from UniProt Q92542 34-709)
binding [1]: binds | binding [2]: binds

human presenilin enhancer 2 with Flag tag (Flag-hPEN2) (from UniProt Q9NZ42 1-101)
binding [1]: binds | binding [2]: binds
